# The source gives many values for each of these; only a part stands here.
# System: RA patients
# Assay: LDL determination, Study 1 (RA patients, add-on to MTX)
# Assay type: in vivo, human
# Settings: Study 1 24 weeks results
# Protocol: Double-blind, placebo-controlled add on study in subjects with moderately to severely active RA who have an inadequate response to methotrexate (MTX) (oral or parenteral).
# 595 subjects randomized to one of 6 dose regimens of Compound 1 (dosed as a [Compound 1:HCl:3H2O]) (3 dose levels administered either once or twice daily) or placebo on top of each subject's stable dose of MTX.
# Compound 1 (dosed as a [Compound 1:HCl:3H2O]) is dosed for twelve weeks once daily (q.d.) (50 mg, 100 mg or 200 mg) or twice daily (b.i.d.) (25 mg, 50 mg or 100 mg); or placebo.
# At Week 12, the subjects on placebo who have not achieved 20% improvement in swollen joint count (SJC66) and tender joint count (TJC68) are re-randomized automatically to receive Compound 1 (dosed as a [Compound 1:HCl:3H2O]) either at 100 mg q.d. or 50 mg b.i.d. doses in a blinded fashion; subjects on 50 mg q.d. who have not achieved 20% improvement in SJC66 and TJC68 will be assigned to 100 mg q.d. and subjects on 25 mg b.i.d. that have not achieved a 20% improvement in SJC66 and TJC68 will be assigned to 50 mg b.i.d. Subjects who switch treatment at week 12 are handled as if they discontinued at week 12 for the purpose of statistical analysis, whereas subjects in the other groups will maintain their randomized treatment until Week 24.
# The determination of [LDL]-cholesterol is made using an automated method taking advantage of the selective micellary solubilization of [LDL]-cholesterol by a nonionic detergent and the interaction of a sugar compound and lipoproteins (VLDL and chylomicrons).
# When a detergent is included in the enzymatic method for cholesterol determination (cholesterol esterase, cholesterol oxidase coupling reaction), the relative reactivities of cholesterol in the lipoprotein fractions increase in this order: [HDL]<chylomicrons <VLDL <[LDL]. In the presence of Mg^2+, a sugar compound markedly reduces the enzymatic reaction of the cholesterol measurement in VLDL and chylomicrons. The combination of a sugar compound with detergent enables the selective determination of [LDL]-cholesterol in serum. (Friedewald et al., 1972; Rifai et al., 1992)
# Homogeneous enzymatic colorimetric assay.
# In the presence of peroxidase, the hydrogen peroxide generated reacts with 4-aminoantipyrine and Sodium N-(2-hydroxy-3-sulfopropyl)-3,5-dimethoxyaniline (HSDA) to form a purple-blue dye.
# The color intensity of this dye is directly proportional to the cholesterol concentration and is measured photometrically.
# Human serum and plasma samples [LDL] determination was done on a Roche/Hitachi Cobas c 701/702 system which automatically calculate the analyte concentration of each sample. Samples containing precipitates are centrifuged before performing the assay.
# [1] = increased from 25 mg b.i.d. to 50 mg b.i.d at 12 weeks, week 1
# [2] = increased from 25 mg b.i.d. to 50 mg b.i.d at 12 weeks, week 2
# [3] = increased from 25 mg b.i.d. to 50 mg b.i.d at 12 weeks, week 4
# [4] = increased from 25 mg b.i.d. to 50 mg b.i.d at 12 weeks, week 8
# [5] = increased from 25 mg b.i.d. to 50 mg b.i.d at 12 weeks, week 12
# [6] = increased from 25 mg b.i.d. to 50 mg b.i.d at 12 weeks, week 16
# [7] = increased from 25 mg b.i.d. to 50 mg b.i.d at 12 weeks, week 20
# [8] = increased from 25 mg b.i.d. to 50 mg b.i.d at 12 weeks, week 24
# [9] = increased from 50 mg q.d. to 100 mg q.d. at 12 weeks, week 1
# [10] = increased from 50 mg q.d. to 100 mg q.d. at 12 weeks, week 2
# [11] = increased from 50 mg q.d. to 100 mg q.d. at 12 weeks, week 4
# [12] = increased from 50 mg q.d. to 100 mg q.d. at 12 weeks, week 8
# [13] = increased from 50 mg q.d. to 100 mg q.d. at 12 weeks, week 12
# [14] = increased from 50 mg q.d. to 100 mg q.d. at 12 weeks, week 16
# [15] = increased from 50 mg q.d. to 100 mg q.d. at 12 weeks, week 20
# [16] = increased from 50 mg q.d. to 100 mg q.d. at 12 weeks, week 24
# [17] = placebo switched to 100 mg q.d. at week 12, week 16
# [18] = placebo switched to 100 mg q.d. at week 12, week 20
# [19] = placebo switched to 100 mg q.d. at week 12, week 24
compound,measurement,setting,value
"O=C(Nc1nc2cccc(-c3ccc(CN4CCS(=O)(=O)CC4)cc3)n2n1)C1CC1 [Compound 1, cyclopropanecarboxylic acid {5-[4-(1,1-dioxo-thiomorpholin-4-ylmethyl)-phenyl]-[1,2,4]triazolo[1,5-a]pyridin-2yl}-amide]",[LDL] Median CFB,"continued 100 mg b.i.d., week 24",0.24 mmol/L
same,[LDL] Mean CFB,"continued 200 mg q.d., week 1",0.15 mmol/L
same,[LDL] Median CFB,"continued 200 mg q.d., week 1",0.16 mmol/L
same,[LDL] Mean CFB,"continued 200 mg q.d., week 2",0.11 mmol/L
same,[LDL] Median CFB,"continued 200 mg q.d., week 2",0.13 mmol/L
same,[LDL] Mean CFB,"continued 200 mg q.d., week 4",0.13 mmol/L
same,[LDL] Median CFB,"continued 200 mg q.d., week 4",0.09 mmol/L
same,[LDL] Mean CFB,"continued 200 mg q.d., week 8",0.16 mmol/L
same,[LDL] Median CFB,"continued 200 mg q.d., week 8",0.18 mmol/L
same,[LDL] Mean CFB,"continued 200 mg q.d., week 12",0.19 mmol/L
same,[LDL] Median CFB,"continued 200 mg q.d., week 12",0.14 mmol/L
same,[LDL] Mean CFB,"continued 200 mg q.d., week 16",0.14 mmol/L
same,[LDL] Median CFB,"continued 200 mg q.d., week 16",0.07 mmol/L
same,[LDL] Mean CFB,"continued 200 mg q.d., week 20",0.17 mmol/L
same,[LDL] Median CFB,"continued 200 mg q.d., week 20",0.14 mmol/L
same,[LDL] Mean CFB,[1],-0.07 mmol/L
same,[LDL] Median CFB,[1],-0.02 mmol/L
same,[LDL] Mean CFB,[2],-0.05 mmol/L
same,[LDL] Median CFB,[2],-0.05 mmol/L
same,[LDL] Mean CFB,[3],-0.25 mmol/L
same,[LDL] Median CFB,[3],-0.27 mmol/L
same,[LDL] Mean CFB,[4],-0.42 mmol/L
same,[LDL] Median CFB,[4],-0.40 mmol/L
same,[LDL] Mean CFB,[5],-0.17 mmol/L
same,[LDL] Median CFB,[5],-0.15 mmol/L
same,[LDL] Mean CFB,[6],-0.13 mmol/L
same,[LDL] Median CFB,[6],-0.16 mmol/L
same,[LDL] Mean CFB,[7],-0.48 mmol/L
same,[LDL] Median CFB,[7],-0.26 mmol/L
same,[LDL] Mean CFB,[8],-0.25 mmol/L
same,[LDL] Median CFB,[8],-0.17 mmol/L
same,[LDL] Mean CFB,[9],-0.02 mmol/L
same,[LDL] Median CFB,[9],-0.02 mmol/L
same,[LDL] Mean CFB,[10],0.15 mmol/L
same,[LDL] Median CFB,[10],-0.04 mmol/L
same,[LDL] Mean CFB,[11],-0.03 mmol/L
same,[LDL] Median CFB,[11],-0.01 mmol/L
same,[LDL] Mean CFB,[12],0.02 mmol/L
same,[LDL] Median CFB,[12],-0.07 mmol/L
same,[LDL] Mean CFB,[13],0.06 mmol/L
same,[LDL] Median CFB,[13],0.10 mmol/L
same,[LDL] Mean CFB,[14],0.12 mmol/L
same,[LDL] Median CFB,[14],0.24 mmol/L
same,[LDL] Mean CFB,[15],0.10 mmol/L
same,[LDL] Median CFB,[15],0.15 mmol/L
same,[LDL] Mean CFB,[16],0.14 mmol/L
same,[LDL] Median CFB,[16],0.20 mmol/L
same,[LDL] Mean CFB,[17],-0.09 mmol/L
same,[LDL] Median CFB,[17],-0.14 mmol/L
same,[LDL] Mean CFB,[18],-0.05 mmol/L
same,[LDL] Median CFB,[18],0.05 mmol/L
same,[LDL] Mean CFB,[19],-0.24 mmol/L
same,[LDL] Median CFB,[19],-0.14 mmol/L

# From patent US10376520B2, “Methods for the treatment of cardiovascular disorders” (Galapagos NV, priority 2015, dated 2019)
